Measurements taken from publication PMC7782553.
Results are given in words; binding and its absence hold for the method and conditions named. Binding seen in cells or lysates may run through a third protein. A yes stands for co-enrichment or nearness to the bait. Other partners may have been found.

The chains behind the UniProt entries cited, without tags or fusion partners.
UniProt P67809: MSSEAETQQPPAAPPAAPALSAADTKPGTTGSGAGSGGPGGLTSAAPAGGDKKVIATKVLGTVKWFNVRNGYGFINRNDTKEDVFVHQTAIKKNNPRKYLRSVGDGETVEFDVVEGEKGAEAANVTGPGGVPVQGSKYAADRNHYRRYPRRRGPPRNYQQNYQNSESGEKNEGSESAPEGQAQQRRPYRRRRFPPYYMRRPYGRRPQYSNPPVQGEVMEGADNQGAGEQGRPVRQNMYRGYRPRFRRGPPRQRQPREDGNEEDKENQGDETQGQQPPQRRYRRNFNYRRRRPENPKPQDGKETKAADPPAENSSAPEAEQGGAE

Target: T1, ubiquitin-specific peptidase 47 (USP47), endogenous (human (endogenous in K562 and primary CML cells)) (UniProt Q96K76)
T1 sequence: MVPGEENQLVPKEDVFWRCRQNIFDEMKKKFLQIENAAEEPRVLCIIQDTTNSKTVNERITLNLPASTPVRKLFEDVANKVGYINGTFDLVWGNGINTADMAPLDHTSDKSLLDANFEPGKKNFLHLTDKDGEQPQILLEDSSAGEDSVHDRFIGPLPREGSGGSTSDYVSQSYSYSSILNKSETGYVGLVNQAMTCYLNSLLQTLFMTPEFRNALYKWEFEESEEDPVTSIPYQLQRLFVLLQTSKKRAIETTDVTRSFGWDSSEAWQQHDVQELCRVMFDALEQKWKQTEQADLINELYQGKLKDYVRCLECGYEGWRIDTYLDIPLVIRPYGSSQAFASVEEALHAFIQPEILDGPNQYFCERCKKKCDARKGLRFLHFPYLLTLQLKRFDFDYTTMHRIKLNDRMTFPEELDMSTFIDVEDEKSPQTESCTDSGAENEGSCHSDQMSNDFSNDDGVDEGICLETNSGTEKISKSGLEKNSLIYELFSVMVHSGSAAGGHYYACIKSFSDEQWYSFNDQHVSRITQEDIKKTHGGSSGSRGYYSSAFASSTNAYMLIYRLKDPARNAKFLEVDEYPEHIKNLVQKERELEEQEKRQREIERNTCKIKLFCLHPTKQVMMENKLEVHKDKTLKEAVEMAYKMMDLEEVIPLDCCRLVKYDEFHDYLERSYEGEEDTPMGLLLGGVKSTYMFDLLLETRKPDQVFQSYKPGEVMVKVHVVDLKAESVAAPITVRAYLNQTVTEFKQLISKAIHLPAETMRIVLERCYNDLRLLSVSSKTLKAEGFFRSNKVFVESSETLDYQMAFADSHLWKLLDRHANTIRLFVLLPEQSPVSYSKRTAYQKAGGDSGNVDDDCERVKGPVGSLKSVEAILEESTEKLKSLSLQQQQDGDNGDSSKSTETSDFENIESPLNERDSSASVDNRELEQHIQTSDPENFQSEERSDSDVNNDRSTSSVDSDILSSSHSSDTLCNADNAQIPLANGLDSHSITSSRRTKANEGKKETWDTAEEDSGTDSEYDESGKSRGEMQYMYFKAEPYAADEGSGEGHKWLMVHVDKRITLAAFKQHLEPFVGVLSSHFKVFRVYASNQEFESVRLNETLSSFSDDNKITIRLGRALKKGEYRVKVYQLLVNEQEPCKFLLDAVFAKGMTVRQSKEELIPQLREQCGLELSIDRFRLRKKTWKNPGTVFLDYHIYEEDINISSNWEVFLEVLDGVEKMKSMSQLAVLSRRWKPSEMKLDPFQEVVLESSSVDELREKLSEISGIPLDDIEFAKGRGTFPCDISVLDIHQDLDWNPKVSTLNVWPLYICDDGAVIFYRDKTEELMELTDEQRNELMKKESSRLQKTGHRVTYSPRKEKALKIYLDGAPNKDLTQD
Test: affinity purification with mass spectrometry; immunoprecipitation with USP47 antibody from K562 cells; SDS-PAGE, Coomassie; two obvious bands cut out, trypsin, LC-MS/MS

binding: binds
Substance: Y-box binding protein 1 (YB-1), endogenous (from UniProt P67809 1-324)
